Test results as given in PubChem BioAssay AID504834 (National Center for Advancing Translational Sciences (NCATS), 2011).
Among all 320,000 compounds or so, about 22,000 (6.9%) were called active. The shares of active, inactive and inconclusive entries below differ from those in the screen. Calls come from the whole dose curve; as a rule, active = well fitted inhibition curve with a large enough effect; inconclusive = small, poorly fitted or top-dose-only effect, or another doubt; inactive = no such curve, though single readings can be large or run the other way. Potencies beside an inconclusive call are fits to weak or partial responses and may not hold up. Where a structure was tested more than once in an assay, its records may differ in their call.

Test: Primary qHTS for delayed death inhibitors of the malarial parasite plastid, 96 hour incubation
Details: P. falciparum luciferase reporter growth; series mostly up to 28.7 µM; activity change, negative = inhibition: at the top concentration
Procedure, shortened: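 96 h incubation, 37 C, 5% CO2, of luciferase-reporter P. falciparum-infected RBCs (2% hematocrit, 0.05% parasitemia final) with test compounds; endpoint luminescence.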
% is set by controls: 0 for no effect and ±100 for the full control effect; potency is the fitted concentration of half-maximal effect.

Structure (SMILES) | Potency | activity change, negative = inhibition
Cc1c(NC(=O)/C(C#N)=C\c2cccs2)c(=O)n(-c2ccccc2)n1C | inconclusive: 18.5 µM [inhibitor, single point] | –
CCc1sc(NC(C)=O)nc1-c1ccccc1 | inconclusive: 0.294 µM [inhibitor, partial curve, poor fit] | –
O=C(CSc1nc2sc3c(c2c(=O)n1-c1ccccc1)CCCC3)N/N=C/c1ccccc1C(=O)O | inconclusive: 11.7 µM [inhibitor, partial curve] | –
COc1ccc2cc(C(c3nnnn3C(C)(C)C)N3CCc4ccccc4C3)c(=O)[nH]c2c1 (stereo unspecified) | inconclusive: 14.7 µM [inhibitor, single point] | –
Cc1ccc(-n2ncc3c2CCCC3NC(=O)CCCN2CCCC2=O)cc1C (stereo unspecified) | active: 4.65 µM | –
CC(=O)NC(CCS(C)(=O)=O)C(=O)Nc1ccc2c(c1)OCO2 (stereo unspecified) | – | inactive: 13%
O=C(NNC(=O)C1CC=CCC1)c1ccccc1Br (stereo unspecified) | inconclusive: 16.5 µM [inhibitor, single point] | –
CN(C)C(=O)CSc1nc2ccccc2n1CC(=O)N1CCN(c2ccccc2)CC1 | inconclusive: 0.0037 µM [inhibitor, full curve, poor fit] | –
COc1ccccc1/C=C/C=N/NC(=O)CCn1cnc2ccccc21 | inconclusive: 11.7 µM [inhibitor, single point] | –
Cc1nc2sccn2c(=O)c1S(=O)(=O)Nc1ccc(N2CCOCC2)c(Cl)c1 | inconclusive: 2.94 µM [inhibitor, partial curve, poor fit] | –
O=S(=O)(Nc1cccc(S(=O)(=O)N2CCOCC2)c1)c1cccs1 | inconclusive: 18.5 µM [inhibitor, partial curve, poor fit] | –
CCOc1cc(N2CCOCC2)c(OCC)cc1NC(=O)CN1C(=O)NC2(CCc3ccccc32)C1=O (stereo unspecified) | inconclusive: 13.1 µM [inhibitor, partial curve, poor fit] | –
O=S(=O)(Nc1ccon1)c1ccc(Br)s1 | inconclusive: 11.7 µM [inhibitor, partial curve, poor fit] | –
O=C(Nc1ccccc1N1CCCCC1)c1ccc(Cl)cc1 | – | inactive: -9.38%
O=C(O)c1c(NC(=O)N2CCCC2)sc2c1CCCC2 | – | inactive: 17.1%
O=C(CCN1C(=O)COc2ccccc21)NCc1cccnc1 | inconclusive: 18.5 µM [inhibitor, single point] | –
CCOc1ccc(CCNS(=O)(=O)c2cn(C)cn2)cc1OCC | inconclusive: 18.5 µM [inhibitor, single point] | –
Cc1ccccc1CN1CCN(C(=O)c2ccc(S(=O)(=O)NCc3ccco3)cc2)CC1 | inconclusive: 18.5 µM [inhibitor, single point] | –
Cc1nc(NC(=O)CCc2ccccc2)sc1C | inconclusive: 9.28 µM [inhibitor, partial curve] | –
O=C(NC1CCCCCC1)C1c2ccccc2C(=O)N1Cc1ccco1 (stereo unspecified) | active: 1.04 µM | –
O=C(NCC1CCCCC1)c1cccnc1Cl | – | inactive: 11.8%
NC(=O)c1ccc(NC(=O)C2CC2)cc1 | inconclusive: 11.7 µM [inhibitor, single point] | –
O=C(CSc1nnc(SCc2ccccc2Cl)s1)N/N=C/c1c[nH]c2ccccc12 | – | inactive: 6.99%
Cc1c(C)c2ccc(OC(C)C(=O)NCc3ccccn3)cc2oc1=O (stereo unspecified) | – | inactive: 2.2%

Structure (SMILES) | Potency | activity change, negative = inhibition
Cc1ccc(C2=NN(CCC(=O)NC3CCCC3)C(=O)CC2)cc1 | inconclusive: 16.5 µM [inhibitor, single point] | –
Cc1ccccc1C(C(=O)NCc1ccccc1)N(Cc1ccco1)C(=O)c1ccccn1 (stereo unspecified) | inconclusive: 13.1 µM [inhibitor, single point] | –
Cc1ccccc1NC(=O)Nc1ccccn1 | inconclusive: 23.3 µM [inhibitor, partial curve, poor fit] | –
COc1ccc(Cl)cc1NC(=O)CN(C)C(=O)c1ccc(OCc2ccccc2)c(OC)c1 | inconclusive: 9.28 µM [inhibitor, single point] | –
O=C(Nc1ccc(Br)c2cccnc12)c1ccc(Cn2cc([N+](=O)[O-])cn2)o1 | inconclusive: 13.1 µM [inhibitor, single point] | –
CCNS(=O)(=O)c1ccc(CCC(N)=O)cc1 | inconclusive: 14.7 µM [inhibitor, partial curve, poor fit] | –
CCC(=O)N1CCc2cc(S(=O)(=O)CCC(=O)O)ccc21 | active: 7.38 µM | –
Cc1ccc(/C=C/C(=O)NCc2ccc(S(N)(=O)=O)cc2)o1 | inconclusive: 13.1 µM [inhibitor, single point] | –
CC(C)(C)c1cc[n+](/C(C(=S)Nc2ccccc2F)=C(/[O-])c2ccc3c(c2)OCCO3)cc1 | inconclusive: 18.5 µM [inhibitor, single point] | –
CN(C)CCCN(C(=O)c1ccc(S(=O)(=O)N2CCCCCC2)cc1)c1nc2ccc(F)cc2s1 | inconclusive: 13.1 µM [inhibitor, single point] | –
CCOC(=O)c1c(C)[nH]c(C)c1C(=O)COC(=O)c1cc2ccccc2cc1OC | inconclusive: 18.5 µM [inhibitor, single point] | –
OC(c1ccccc1)(c1ccccc1)C1CN2CCC1CC2 (stereo unspecified) | active: 12 µM | –
Cc1nc([N+](=O)[O-])c(C(=O)OCc2ccccc2C#N)n1C | – | inactive: 7.69%
C=CCOC(=O)C1=C(C)NC(SCC)=C(C#N)C1c1ccc(Cl)cc1 (stereo unspecified) | active: 10.4 µM | –
S=C1NC2(CCCCC2)NC12CCCCC2 | inconclusive: 13.1 µM [inhibitor, single point] | –
Cc1cc(C)cc(NS(=O)(=O)c2coc(C(N)=O)c2)c1 | inconclusive: 11.7 µM [inhibitor, single point] | –
CN(C/C=C/C#CC(C)(C)C)Cc1cccc2ccccc12 | – | inactive: -9.77%
CN(c1ccccc1)c1nc(N)c([N+](=O)[O-])c(NC2CCCCC2)n1 | inconclusive: 14.7 µM [inhibitor, single point] | –
O=C(CCCN1C(=O)/C(=C/c2cccs2)SC1=S)Nc1ccc(O)cc1 | – | inactive: -7.03%
CSC1=N/C(=C\c2ccccc2F)C(=O)S1 | inconclusive: 9.28 µM [inhibitor, single point] | –
Cc1cc(SCC(=O)N(CC(C)C)c2c(N)n(CC(C)C)c(=O)[nH]c2=O)nc2ccccc12 | inconclusive: 16.5 µM [inhibitor, single point] | –
Cc1ccc2nc(Cl)c(C3CC(c4ccco4)=NN3C(=O)CCCC(=O)O)cc2c1 (stereo unspecified) | – | inactive: -5.57%
Cc1ccc2cc(C#N)c(N3CCCN(S(=O)(=O)c4ccccc4)CC3)nc2c1 | inconclusive: 1.65 µM [inhibitor, full curve] | –
Cc1noc(C)c1COC(=O)CCCNC(=O)c1ccc(Cl)cc1 | inconclusive: 18.5 µM [inhibitor, single point] | –

Structure (SMILES) | Potency | activity change, negative = inhibition
COc1ccc(CN2CCCC(CNC(=O)c3ccc(F)cc3)C2)c(F)c1 (stereo unspecified) | active: 1.85 µM | –
CCOc1cc(C(=O)Nc2cc3c(cc2N2CCOCC2)n(C)c(=O)n3C)cc(OCC)c1OCC | active: 8.28 µM | –
O=C(NCCc1nnc2ccc(NCc3ccc(Cl)cc3)nn12)c1ccccc1 | – | inactive: -23.5%
O=C(OC1CCCCC1=O)c1cccc(S(=O)(=O)N2CCOCC2)c1 (stereo unspecified) | – | inactive: 4.06%
O=C(CN1CCN(S(=O)(=O)N2CCCCC2)CC1)Nc1ccc(Cl)c(Cl)c1 | – | inactive: -12.2%
Cc1[nH]nc(SCC(=O)NC2CCCC2)c1[N+](=O)[O-] | inconclusive: 18.5 µM [inhibitor, single point] | –
CCc1ccc(CN(C)C(=O)c2cccc(S(=O)(=O)Nc3ccccc3OC)c2)cc1 | inconclusive: 7.38 µM [inhibitor, single point] | –
COc1ccccc1NC(=S)N1CCN(c2nc(-c3ccccc3)cs2)CC1 | – | inactive: -7.55%
O=C(NCc1ccco1)c1ccc(CNc2c(N3CCCCC3)c(=O)c2=O)cc1 | active: 10.4 µM | –
CC(CC(=O)NCCc1ccc(Cl)cc1)S(=O)(=O)c1ccc2c(c1)NC(=O)CO2 (stereo unspecified) | inconclusive: 18.5 µM [inhibitor, single point] | –
Cc1cc(N/N=C/c2ccc(F)cc2)nc(-n2nc(C)cc2C)n1 | active: 1.04 µM | –
CN(Cc1ccc(Cl)cc1)C(=O)COC(=O)c1ccc(-c2ccc(O)cc2)cc1 | – | inactive: 23.2%
Cc1ccc(CNC(=O)/C=C/c2ccccc2Cl)cc1 | inconclusive: 8.28 µM [inhibitor, partial curve, poor fit] | –
Cc1cc(C)nc(/N=C(\NC(=O)C(C)(C)C)Nc2ccc(F)cc2)n1 | – | inactive: 9.29%
CN(C(=O)Nc1ccccc1)C1CCS(=O)(=O)C1 (stereo unspecified) | active: 2.33 µM | –
COc1ccc(NC(=O)Nc2nnc(CC(=O)NCc3ccccc3)s2)cc1 | – | inactive: 36%
CC1CCCN(C(=O)CN(c2ccccc2)S(=O)(=O)c2ccc(F)cc2)C1 (stereo unspecified) | inconclusive: 18.5 µM [inhibitor, single point] | –
Cc1cc(NC(=O)CSc2nnc(-c3cccc(Cl)c3)o2)no1 | active: 2.94 µM | –
CC(=O)C1=C(O)C(=O)N(CCc2c[nH]c3ccccc23)C1c1ccco1 (stereo unspecified) | inconclusive: 1.04 µM [inhibitor, partial curve, poor fit] | –
CCC(=O)N(c1nnc(SCC(=O)NN2C(=O)NC3(CCCCC3)C2=O)s1)C1CC1 | inconclusive: 14.7 µM [inhibitor, partial curve, poor fit] | –
Cc1c(-c2nc(-c3ccc(C(F)(F)F)cc3)no2)n(C)oc1=O | – | inactive: 126%
CC(Oc1ccccc1Cl)C(=O)N1CCCN(C)CC1 (stereo unspecified) | inconclusive: 18.5 µM [inhibitor, single point] | –
CCOC(=O)N1CCC(NS(=O)(=O)c2ccc3c(c2)CCN3C(C)=O)CC1 | inconclusive: 1.31 µM [inhibitor, partial curve, poor fit] | –

By substructure: the compounds so far with bromine (three)
Structure (SMILES) | Potency | activity change, negative = inhibition
O=C(NNC(=O)C1CC=CCC1)c1ccccc1Br (stereo unspecified) | inconclusive: 16.5 µM [inhibitor, single point] | –
O=S(=O)(Nc1ccon1)c1ccc(Br)s1 | inconclusive: 11.7 µM [inhibitor, partial curve, poor fit] | –
O=C(Nc1ccc(Br)c2cccnc12)c1ccc(Cn2cc([N+](=O)[O-])cn2)o1 | inconclusive: 13.1 µM [inhibitor, single point] | –
